The record followed here is article PMC5843656.

Protein sequences, listed by entry. Tags and fused reporters are not part of them. Lines headed by an entry give the natural chain unless they say otherwise; changes in a name come on top.
UniProt Q9CZD3: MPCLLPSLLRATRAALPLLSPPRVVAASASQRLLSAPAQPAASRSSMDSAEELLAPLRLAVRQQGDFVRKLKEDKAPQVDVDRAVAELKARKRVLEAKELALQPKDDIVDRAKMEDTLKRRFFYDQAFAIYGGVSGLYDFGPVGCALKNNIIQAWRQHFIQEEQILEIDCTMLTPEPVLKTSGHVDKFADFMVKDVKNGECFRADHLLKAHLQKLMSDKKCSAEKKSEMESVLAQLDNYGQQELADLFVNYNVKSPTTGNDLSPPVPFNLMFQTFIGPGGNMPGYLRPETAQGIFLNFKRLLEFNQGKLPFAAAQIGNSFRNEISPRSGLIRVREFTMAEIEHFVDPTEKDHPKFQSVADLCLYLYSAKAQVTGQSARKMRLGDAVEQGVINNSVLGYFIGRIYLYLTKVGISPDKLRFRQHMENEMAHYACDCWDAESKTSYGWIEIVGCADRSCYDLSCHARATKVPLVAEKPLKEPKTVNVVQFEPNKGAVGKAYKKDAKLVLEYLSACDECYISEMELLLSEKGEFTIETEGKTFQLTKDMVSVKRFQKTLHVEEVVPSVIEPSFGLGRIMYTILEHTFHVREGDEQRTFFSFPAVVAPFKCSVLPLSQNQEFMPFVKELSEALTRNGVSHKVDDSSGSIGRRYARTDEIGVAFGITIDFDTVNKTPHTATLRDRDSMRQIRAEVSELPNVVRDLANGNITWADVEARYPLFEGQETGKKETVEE

For assay [1], the target named is T1, histone deacetylase 6 (HDAC6), endogenous in NSC-34 cells (mouse (endogenous in NSC-34)) (UniProt Q9Z2V5).
T1 sequence: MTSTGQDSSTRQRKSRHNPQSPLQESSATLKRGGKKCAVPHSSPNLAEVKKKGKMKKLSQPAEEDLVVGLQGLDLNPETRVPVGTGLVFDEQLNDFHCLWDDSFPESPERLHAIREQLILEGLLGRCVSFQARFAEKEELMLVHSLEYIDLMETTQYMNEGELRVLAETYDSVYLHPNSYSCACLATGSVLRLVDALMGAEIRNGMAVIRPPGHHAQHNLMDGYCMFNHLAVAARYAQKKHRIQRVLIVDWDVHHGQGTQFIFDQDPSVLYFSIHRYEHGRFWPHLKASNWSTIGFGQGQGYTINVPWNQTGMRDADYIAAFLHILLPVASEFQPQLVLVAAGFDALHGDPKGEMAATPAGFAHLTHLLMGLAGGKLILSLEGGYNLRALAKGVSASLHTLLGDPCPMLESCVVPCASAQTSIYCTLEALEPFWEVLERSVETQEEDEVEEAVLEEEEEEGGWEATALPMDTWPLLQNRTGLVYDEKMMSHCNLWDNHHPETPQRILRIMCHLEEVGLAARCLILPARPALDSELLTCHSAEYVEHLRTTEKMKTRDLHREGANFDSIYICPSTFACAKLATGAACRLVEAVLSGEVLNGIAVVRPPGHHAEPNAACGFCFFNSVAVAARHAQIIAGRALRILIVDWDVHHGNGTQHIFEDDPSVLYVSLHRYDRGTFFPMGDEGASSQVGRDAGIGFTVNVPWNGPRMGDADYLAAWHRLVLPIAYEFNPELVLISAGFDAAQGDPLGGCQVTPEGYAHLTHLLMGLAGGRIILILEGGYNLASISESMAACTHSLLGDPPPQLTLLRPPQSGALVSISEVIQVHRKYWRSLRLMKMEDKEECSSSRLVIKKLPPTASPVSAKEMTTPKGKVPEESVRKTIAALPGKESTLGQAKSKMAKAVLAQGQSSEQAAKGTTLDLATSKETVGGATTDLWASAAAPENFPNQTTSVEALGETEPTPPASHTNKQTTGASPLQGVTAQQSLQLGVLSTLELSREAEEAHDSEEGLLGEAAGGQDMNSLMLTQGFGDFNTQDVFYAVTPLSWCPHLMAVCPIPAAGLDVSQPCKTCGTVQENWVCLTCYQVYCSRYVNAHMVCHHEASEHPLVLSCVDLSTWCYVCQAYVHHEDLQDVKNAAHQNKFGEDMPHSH
Put plainly: co-IP; lysates of NSC-34 cells transfected with V5-tagged human GlyRS constructs, endogenous HDAC6; antibody on protein G-sepharose, 3 h or overnight at 4 °C, washed four times with cold PBS pH 7.4; western blot.

Assay [2] deals with T2, histone deacetylase 6 (HDAC6), endogenous in mouse brain (mouse (endogenous in brain tissue)) (UniProt Q9Z2V5).
T2 sequence: T1 sequence
Put plainly: co-IP; mouse brain tissue lysates of Gars^+/+ and Gars^P234KY/+ littermates (postnatal day 7); antibody on protein G-sepharose, 3 h or overnight at 4 °C, washed four times with cold PBS pH 7.4; western blot. In general terms: A western blot detects proteins with antibodies after separation by electrophoresis.

These are yes or no findings as the source states them, for the method shown. In cells and extracts the contact can be indirect. Binding can be weak; no strength is given. Sequences can lack the tags named with a protein.

As for human GlyRS G598A, C-terminal V5-tagged, the binding entry in assay [1] is reported as “binds”.
human GlyRS C157R, C-terminal V5-tagged: in assay [1], the binding entry was “binds”.
For the substance “human GlyRS wild type, C-terminal V5-tagged”, the binding entry in assay [1] is given as “no binding”.
As for human GlyRS L129P, C-terminal V5-tagged, the binding entry in assay [1] is given as “binds weakly”.
Same read-out and setting: under human GlyRS G526R, C-terminal V5-tagged stands “binds weakly”.
With human GlyRS H418R, C-terminal V5-tagged, the binding result in assay [1] is “binds weakly”.
Consider “glycyl-tRNA synthetase (GlyRS) P234KY of Gars^P234KY/+ CMT2D mice (from UniProt Q9CZD3)”, for which the binding entry in assay [2] is listed as “binds”.
As for human GlyRS E279D, C-terminal V5-tagged, in assay [1], the binding result is “binds weakly”.
In the case of human GlyRS S211F, C-terminal V5-tagged, the binding entry in assay [1] was “binds weakly”.
With human GlyRS E71G, C-terminal V5-tagged, the binding result in assay [1] is reported as “binds weakly”.
As for human GlyRS S581L, C-terminal V5-tagged, in assay [1], the binding result is given as “binds”.
As for human GlyRS G240R, C-terminal V5-tagged, in assay [1], the binding result was “binds weakly”.
On the same count and under the same terms, next, “human GlyRS P234KY, C-terminal V5-tagged”: “binds”.
